Data on eleven molecules can be found in patent US20160272707A1.

The chains behind the UniProt entries cited, without tags or fusion partners. Residues count along the entry.
UniProt A8MXK1, residues 29-147: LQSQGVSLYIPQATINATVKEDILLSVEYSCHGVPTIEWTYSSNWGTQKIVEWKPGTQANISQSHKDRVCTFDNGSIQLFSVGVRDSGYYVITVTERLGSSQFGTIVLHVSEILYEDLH

Results are given in words; binding and its absence hold for the method and conditions named. Some binding calls cover weakened binding; strength is not graded here.

Experiment [1] deals with human VSTM5-EGFP (SEQ ID NO:133) expressed on HEK-293 cells (human). The experiment can be described thus: FACS titration of the human IgG1 on 293-huVSTM5 cells, 293-MT control cells as open squares; y axis MFI (anti-Human A647).
For experiment [2], the target named is VSTM5 monomer (UniProt A8MXK1). The experiment can be described thus: SPR, VSTM5 monomer binding to the IgG; binding seen, but complex kinetics gave no KD.
Experiment [3] has as its target VSTM5 monomer (UniProt A8MXK1). The experiment can be described thus: SPR epitope binning, remark in the column 'Epitope Bin'.
Experiment [4] concerns the target VSTM5 monomer (UniProt A8MXK1). The experiment can be described thus: SPR (ProteOn XPR36), immobilised mAb, VSTM5 monomer 25 nM.
In experiment [5] the target is human VSTM5-EGFP (SEQ ID NO:133) expressed on HEK-293 cells (human). The experiment can be described thus: FACS titration on 293-huVSTM5 cells (FIG. 30).

B1: 49-01.D06 (antibody, V domains shown)
VH: QVQLVQSGAEVKKPGTSVKVSCKASGYTFTTYTMHWVRQAPGQRLEWMGWINTGNGNTKYSQKFQDRVTITRDTSASTAYMELSSLKFEDTAVYYCAREGVTIFGDHSYYYGMDVWGQGTTVTVSS
VL: QPVLTQSSSASASLGSSVKLTCTLSSGHSSYIIAWHQQQPGKAPRYLMKLEGSGSYNKGSGLPDRFSGSSSGADRYLTISNLQSEDEADYYCETWDGNTWVFGGGTQLTVLG
Consider B1, for which, in experiment [1], the binding result is given as “binds”.

B2: 50-01.A04 (antibody, V domains shown)
VH: QVQLVQSGAEVKKPGESLKISCKGSGYDFNNYWIGWVRQTPEKGLEWMGIVYPGDHPGDYHIRYGPSFQGQVTISADRSITTAYLQWRNLKASDTAMYYCARLGSSKDLDYWGQGTLVTVSS
VL: EIVLTQSPATLSLSPGERATLSCRASQSVSGHLDWYQQKPGQSPRLLIYDASNRATGIPARFSGSGSGTDFSLTISSLEPEDFAVYYCQHRSNWPWTFGQGTKVEIKR
Turning to B2, the binding entry in experiment [1] is listed as “binds”.

B3: 50-01.E02 (antibody, V domains shown)
VH: QVQLVESGGGVVQPGGSLKLSCVASGFTFSAYAMNWVRLVPGKGLEWVSGISGNGYSTFYPDSVQGRFTVSRDNSKNTLFLQIDRLTGGDTAIYYCAKVQTTVITPFQNWGQGTLVTVSS
VL: EIVLTQSPGTLSLSPGERATLSCRASQNIGSNFLAWYQQKPGQAPRLLIYGASTRANGIPDRFSGSKSETDFTLTISRLEPEDFAVYYCQQYDNSPYTFGQGTKLEIKR
On to B3, for which the binding result (with VSTM5 monomer [2]; in experiment [1]) was “binds” each time.

B4: 50-01.B01 (antibody, V domains shown)
VH: QVQLQESGPGLMKPSQTLSLTCTVSGDSITRGSSYWSWIRQSDGKGLEWIGHIYSGGDTDYNPALKSRVTISADASRGQFLLRLTSMTAADTAVYYCARDRGAYGMDVWGQGTTVTVSS
VL: QPVLTQSSSASASLGASVKLTCTLSSEHDRYAIAWLQQKPEKGPRYLMKVNSDGSHRKGDGIPDRFSGSSSGAERYLTISRLQSEDEADYYCQTWGIGIRVFGGGTQLTVLG
Turning to B4, the binding result in the experiment with VSTM5 monomer [3] and with VSTM5 monomer [4] was “binds” each time.

B5: 52-01.A07 (antibody, V domains shown)
VH: EVQLVESGGGLVQPGRSLRLSCAASGFTFSSYAMHWVRQAPGKGLEWVAVISYDGSNKYYADSVKGRFTISRDNSKNTLYLQMNSLRAEDTAVYYCASKRELHSFDYWGQGTLVTVSS
VL: DVVMTQSPLSLPVTPGEPASISCRSSQSLLQSNGHNYLNWYLQKPGQSPQVLIYLASNRASGVPDRFSGSGSGTDFTLKISRVEAEDVGIYYCMQGLQIPLTFGGGTKVEIKR
For the molecule B5, the binding entry in experiment [5] and in experiment [1] was “binds” throughout.

B6: 49-01.F05 (antibody, V domains shown)
VH: QVQLQQWGAGLLKPSETLSLTCAVYGGSFSGYYWSWIRQPPGKGLEWIGEINHSGSTNYNPSLKSRVTISVDTSKNQFSLKLSSVTAADTAVYYCARGWRGGSFMDVWGQGTTVTVSS
VL: QSALTQPRSVSGSPGQSVTISCTGTSSDVGGYNYVSWYQQHPGKAPKLMIYDVIKRPSGVPDRFSGSRSGNTASLTISGLQAEDEADYYCCSYAGTHWVFGGGTKLTVLG
Consider B6, for which the binding entry in experiment [1] was “binds”.

B7: 50-01.F03 (antibody, V domains shown)
VH: EVQLVEIGGGLIQPGRSLRLSCAASGFTFSSYAMHWVRQAPGKGLEWVAVISYDGSKKYYADSVKGRFTISRDNSKNTVHLQMNSLRVEDTAVYYCALLSRPHYGLDVWGQGTTVTVSS
VL: QSVLTQPPSVSAAPGQKVTISCSGSRSNVGGNFLSWYQHVPGTPPQLLIYDNYKRPSEIPDRFSGSKSGTSATLDITGLQTGDEADYYCGTWDSSLSSWVFGGGTQLTVLG
With B7, the binding entry (in the experiment with VSTM5 monomer [3]; with VSTM5 monomer [4]; with VSTM5 monomer [2]; in experiment [1]) was “binds” throughout.

B8: 47-01.D05 (antibody, V domains shown)
VH: QITLKESGPTLVKPTQTLTLTCTFSGFSLSTSGVGVGWIRQPPGKALEWLALIYWDDDKRYSPSLKSRLTITKDTSKNQVVLTMTNMDPVDTATYYCAHSGSVGYALYFDYWGQGTLVTVSS
VL: QAVLTQPPSSSASPGESARLTCTLPSDINVRYYNIYWYQQKPGSPPRYLLYYQSDSHKGRGSGVPSRFSGSKDTSANTGILLISGLQSEDEADYYCMIWASNGSGVLGGGTQLTVLG
As to B8, in experiment [1], the binding result is “binds”.

B9: 50-01.D01 (antibody, V domains shown)
VH: QVQLVESGGGVVQPGRSRRLSCAASGFAFRNYGMHWVRQAPGKGLEWVAFISQNGGKKYYADSVTGRFTVSRDNSKNTLYLQINSLTTDDTAVFYCARSGSGSWGYSDFPGPFDHWGQGSLVTVSS
VL: EIVLTQSPGTLSLSPGERATLSCRASQNIFISFLAWYQQKPGQAPRLLLYGASNRATGIPDRFSGSGSGTDFTLTISRLEPEDFAVYYCQQYGSSPLTFGGGTKVEIKR
For B9, the binding entry in experiment [1] is “binds”.

B10: 49-01.F01 (antibody, V domains shown)
VH: EVQLVESGGGVVKPGESLRLLCTASGLSFNKYSINWVRQAPGGGLEWVSSIESGSGHIYYADSLEGRFTISRDNAKNSVTLEMNSLRVEDTALYYCVSGPEDKWLLQLYFESWGQGTLVTVSS
VL: EIVLTQSPATLSLSPGERATLSCRTSQSSPSDNLAWYQHKPGQAPRLLIYGGSNRATGIPARFSGSGSGTDFTLTISSLEPEDFAVYYCQQYGSSPLTFGGGTKVDIKR
With B10, the binding result in experiment [1] is reported as “binds”.

B11: 49-02.C11 (antibody, V domains shown)
VH: EVQLVESGGGLVQPGGSLRLSCAASGFTFSSYAMTWVRQAPGKGLEWVSVISGGGGTTYYADSVKGRFTISRDNSKNTLYLQMSSLRAEDTAVYYCAKGYSSGWPYYFDYWGQGTLVTVSS
VL: EIVLTQSPGTLSLSPGERATLSCRASQSGVTNFLAWYQQKPGQAPRLLIYATSSRATGIPDRFSGSASGTDFTLTITRLEPEDFAVYFCQQYASSPLTFGGGTKVEIKR
Take B11: in experiment [1], the binding entry was “binds”.
